Experimental data as given in patent publication US20240297323A1, “BIOBASED AQUEOUS ORGANIC-BASED ELECTROLYTE IN AQUEOUS ORGANIC REDOX FLOW BATTERY” (KEMIWATT, priority 2021, published 2024).
Several values for one entry are separate records, joined by “and”; a condition that tells them apart may be missing. Equal entries are not always repeated. Where two headings read alike, the source gives them in different places.

Key:
[1] = Electrochemical properties at diluted state (cyclic voltammetry, RDE linear sweep voltammetry); format: physicochemical; conditions: cell with ferricyanide/ferrocyanide redox couple in the posolyte
Experimental: Cyclic voltammetry experiments were performed at a 100 mV/s scan rate for compounds A, B and B-M3CH in a solution at pH 14 (KOH 1 M).
The electrochemical experiments were conducted on an electrochemical working station (BioLogic Science Instruments VSP) at 25° C. using a three-electrodes electrochemical cell, where a Pt wire was employed at the counter electrode (CE), an Ag/AgCl/KCl saturated electrode immerged in a 1 M KOH solution protected from the cell by a porous frit glass served as the reference electrode (RE) and a rotating disc electrode (RDE) mounted with a glassy carbon (GC, 7.069 mm^2) disk was used as the working electrode (WE), respectively. The potential was reported relative to the normal hydrogen electrode (NHE), which was converted from the Ag/AgCl reference electrode (0.230 V versus NHE). The ohmic drop between the WE and RE is determined by current interrupt experiments and leads to a value close to 0.7069 Ω·cm^2. All cyclic voltammetry experiments were conducted by alleviating most of this resistance (85%) using the potentiostat manual ohmic drop compensation. […]
Each recorded cyclic voltammetry of the reduction and the oxidation process of a compound at a given scan rate is analyzed by measuring ip,a=anodic peak current; ip,c=cathodic peak current; v=scan rate; Ep,a=anodic peak potential; Ep,c=cathodic peak potential; ΔEp=Ep,a−Ep,c; the apparent standard redox potential E^0′=[…]. […]
The oxidation (DO) and the reduction (DR) diffusion coefficients were calculated using Randles-Sevcik (RS) equation ip=0.4463.n^3/2.F^3/2.A.C.v^1/2.D^1/2.R^−1/2.T^−1/2=Cte.v^1/2.D^1/2, n=number of electrons exchanged during the redox process; F=faradaic number=96485 C·mol^−1; A=electrode active surface; C=redox active molecule concentration; R=gas constant=8.314 J·K^−1·mol^−1; T=bulk temperature=299 K. The experiments are conducted by cyclic voltammetry at various scan rates ranging from 10 mV/s up to 20 V/s. […]
Peak-to-peak separation ΔEp values were determined from the third cycle of each cyclic voltammogram and are gathered in the following table 2. […]

[2] = Cycling test in AORFB cell, negolyte with compound B
[3] = Post-cycling analyses of the negolyte (cyclic voltammetry and 1H NMR before and after cycling); format: physicochemical; conditions: negolyte before the cycling test
Experimental: FIG. 3: Cyclic voltammetry (3rd cycle) of the negolyte (black line) before the cycling test and (grey line) after cycling test, recorded at a scan rate of 100 mV·s^−1.
FIG. 4: ^1H NMR spectra of the negolyte, recorded in D2O between 0 and 10 ppm, (black line) before and (grey line) after the cycling test.
A preliminary electrochemical test was performed on the negolyte before and after the cycling test (FIG. 3).
Further analyses were performed using ^1H NMR spectroscopy, see FIG. 4.
A preliminary electrochemical test was performed on the negolyte before and after thousands of cycles and a few months of cycling test (FIG. 7).
Further analyses were performed using ^1H NMR spectroscopy, see FIG. 8.
A preliminary electrochemical test was performed on the negolyte before and after the cycling test (FIG. 10) which lasted for more than 1000 cycles, or 25 days of constant cycling.
Further analyses were performed using ^1H NMR spectroscopy, see FIG. 11.

[4] = prior art CN107171012, galvanostatic mode; cited from earlier work
[5] = Cycling test in AORFB cell, negolyte with compound B-M3CH
[6] = Cycling test in AORFB cell, negolyte with compound A

Cc1cc(O)cc2c1C(=O)c1c(O)cccc1C2=O [Compound B, 3,8-dihydroxy-1-methylanthracene-9,10-dione]
open-circuit-voltage (ocv) at 50% SOC [1]: about 1.1 V
energy density [2]: 2.1 Wh/L
nominal current density reached [2]: 120 mA/cm^2
experimental capacity achieved at the beginning of the cycling test ([2]; 0.18 M compound B, pH 14.0, 5 cm^2, galvanostatic 40 mA/cm^2): 78%
active surface resistance (ASR) ([2]; 50% SOC, 80 μm membrane): 2.0-2.2 Ω·cm^2
average coulombic efficiencies ([2]; 500 cycles, 40 mA/cm^2): ~99.82%
average energy efficiencies ([2]; 500 cycles, 40 mA/cm^2): ~81.47%
capacity loss per cycle ([2]; 500 cycles, 40 mA/cm^2): 0.025% and −0.025%
available capacity after air sealing problematics ([2]; further operation at different current densities): below 40%
max current during reduction step [3]: roughly −4 mA
max current during reoxidation step [3]: roughly 2.8 mA

O=C1c2ccccc2C(=O)c2c1cc(S(=O)(=O)[O-])c(O)c2O.[Na+] [alizarin red S]
coulombic efficiency [4]: 98.3%
energy density [4]: 1.2 Wh/L

Cc1cc(OCCCC(=O)O)cc2c1C(=O)c1c(O)cccc1C2=O [Compound B-M3CH, 4-((5-hydroxy-4-methyl-9,10-dioxo-9,10-dihydroanthracen-2-yl)oxy)butanoic acid]
open-circuit-voltage (ocv) at 50% SOC [1]: about 1.0 V
energy density [5]: 2.0 Wh/L
nominal current density reached [5]: 40 mA/cm^2
experimental capacity achieved at the beginning of the cycling test ([5]; 0.1 M compound B-M3CH, pH 13.0, 25 cm^2, power static mode 40 mW/cm^2): 70%
active surface resistance (ASR) ([5]; 50% SOC, 50 μm membrane): 2.0 Ω·cm^2
average coulombic efficiencies ([5]; power static mode 40 mW/cm^2): ~99.41%
average energy efficiencies ([5]; power static mode 40 mW/cm^2): ~81.17%
capacity loss per cycle ([5]; power static mode 40 mW/cm^2): 0.0099% and −0.0099%
max current during reduction step [3]: roughly −2.3 mA
max current during reoxidation step [3]: roughly 2.0 mA

Cc1c(C(=O)O)c(O)cc2c1C(=O)c1c(O)cccc1C2=O [Compound A]
open-circuit-voltage (ocv) at 50% SOC [1]: about 1.1 V
energy density [6]: 3.7 Wh/L
nominal power density reached [6]: 100 mW/cm^2
capacity utilization at the beginning of the cycling test ([6]; 0.24 M compound A, pH 13.5, 25 cm^2, 100 mL/min): 100%
active surface resistance (ASR) ([6]; 50% SOC, 80 μm membrane): 2.0-2.3 Ω·cm^2
coulombic efficiencies ([6]; cycles under power static mode): < 99%
energy efficiencies ([6]; even at nominal power density 100 mW/cm^2): > 70%
max current during reduction step [3]: roughly −4 mA
max current during reoxidation step [3]: roughly 3 mA
